This assay in a line: qHTS Assay to Find Inhibitors of Chronic Active B-Cell Receptor Signaling. The conditions noted are these: ABC-DLBCL IkBa-CBG/CBR reporter, luminescence ratio (green luciferase fused to IkBa over red control in TMD8 lymphoma cells), 4 h. The essentials: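 Doxycycline induced both beetle luciferases in TMD8 lymphoma cells; IKK-driven degradation limits the IkappaBalpha-fused green signal, while red luminescence normalises for cell number and nonspecific effects. Compounds tested up to 46 uM, 4 hrs.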
In general terms: qHTS replaces the single test concentration by a dilution series.

Setting [1] is: measured here: CBR red luminescence, cell number.
[2] abbreviates: measured here: IkBa-CBG green luminescence.

Usually AC50 stands for the concentration giving half of the maximal activity seen.

Some of the results follow. These are further read-outs of the screen, such as a control signal, another cell line or another target. No call is given for them. Compounds called inactive in the main read-out are mostly missing here. Words in brackets tell the shape of the fitted curve; partial curves, single points and poor fits give uncertain potencies.

Turning to `COc1cc(OC)cc(C(=O)Nc2nc3ccccc3[nH]2)c1`, the AC50 under setting [1] is 16.4 µM [falling, partial curve, poor fit].

Consider `COc1ccc(NC(=O)c2ccc(NS(=O)(=O)c3cccc4cccnc34)cc2)cc1`, for which the concentration at half-maximal activity (AC50) under setting [1] was 35.5 µM [falling, single point].

On to `COc1cc(NC(=O)COC(=O)[C@@H]2CCCN2S(=O)(=O)c2ccc(Cl)cc2)cc(OC)c1OC`, for which the AC50 under setting [1] was 0.355 µM [rising, full curve, poor fit].

`C=CCNC(=O)/C(C#N)=C/c1c(N2CC(C)OC(C)C2)nc2ccccn2c1=O` (configuration not stated): the half-maximal activity concentration (AC50) under setting [1] is 0.82 µM [rising, full curve, poor fit].

Regarding `COc1cccc(OCc2cc(C(=O)N3CCC(C(O)C(C)C)CC3)no2)c1` (configuration not stated), the AC50 under setting [1] was 17.8 µM [falling, partial curve, poor fit].

In the case of `COc1ccc(/C=C/C(=O)c2cc(F)ccc2OC(=O)c2ccccc2OC)cc1OC`, the AC50 reads like this: under setting [1], 11.2 µM [rising, partial curve]; under setting [2], 2.82 µM [falling, full curve].

With `Cc1ccc2c(CN(C)Cc3cccc(F)c3)cc(=O)oc2c1`, the AC50 under setting [1] was 6.31 µM [rising, partial curve, poor fit].

For the compound `Cc1cccc(NC(=S)Nc2ccc(Cl)c(Cl)c2)c1`, the AC50 under setting [1] is 10 µM [rising, partial curve, poor fit].

Turning to `COc1ccc(CN2C(=O)C(C)Oc3ccccc32)cc1` (configuration not stated), under setting [1], the AC50 was 35.5 µM [rising, single point].

For the compound `CCCCc1cc(=O)oc2cc(C)c(CN3CCCC3)c(O)c12`, the AC50 under setting [1] is 5.8 µM [falling, partial curve, poor fit].

For `CN(CC(=O)Nc1ccc(F)cc1)CC(=O)NC1CCCCC1`, the concentration at half-maximal activity (AC50) under setting [1] is 7.31 µM [falling, partial curve, poor fit].

Take `Cc1ccc(C(=O)Nc2cccc(C(=O)N/N=C/c3ccccc3F)c2)cc1`: the AC50 under setting [1] is 35.5 µM [falling, single point].

With `Cc1cc(=O)[nH]c(SCC(=O)NCCc2ccccc2)n1`, under setting [1], the AC50 is 6.51 µM [rising, partial curve, poor fit].

Regarding `CC(C)NC(=O)c1ccc(-c2cccc(C(F)(F)F)c2)o1`, the half-maximal activity concentration (AC50) under setting [1] was 15.8 µM [rising, partial curve, poor fit].

Regarding `CCc1cccc(C)c1NC(=O)CN(C)Cc1ccc(Br)cc1`, the half-maximal activity concentration (AC50) under setting [1] was 17.8 µM [falling, single point].

On to `Cc1nc2ccc([N+](=O)[O-])cc2c(=O)n1Cc1cccc(Br)c1`, for which the AC50 under setting [1] is 20 µM [falling, single point].

Consider `C/C(=N\Nc1cccc(C(=O)O)c1)c1ccc2c(c1)Nc1ccccc1S2`, for which the AC50 under setting [1] is 1.26 µM [rising, full curve, poor fit] and the concentration at half-maximal activity (AC50) under setting [2] was 1.12 µM [rising, full curve, poor fit].

Regarding `Cc1ccc(S(=O)(=O)N2CCCCC2)cc1NC(=O)c1cc(F)c(F)c(F)c1F`, the half-maximal activity concentration (AC50) under setting [1] is 18.4 µM [falling, partial curve, poor fit].

On to `O=C(Nc1nc2ccc(F)cc2s1)C1=COCCO1`, for which, under setting [1], the AC50 was 3.66 µM [falling, partial curve, poor fit].

On to `CN(C(=O)COC(=O)c1cc2ccccc2oc1=O)C1CCCCC1`, for which, under setting [1], the AC50 was 20.6 µM [rising, partial curve, poor fit].

Regarding `CS(=O)(=O)N1CCN(c2ccccc2NC(=O)c2cccnc2)CC1`, the half-maximal activity concentration (AC50) under setting [1] was 3.26 µM [falling, partial curve, poor fit].

With `COc1ccccc1NC(=O)Nc1nc(CC(=O)NCc2ccc(F)cc2)cs1`, the concentration at half-maximal activity (AC50) under setting [1] is 32.6 µM [falling, single point].

With `CNC(=O)c1cc(Nc2nnc(-c3ccc(O)cc3)c3ccccc23)ccc1OC`, the AC50 under setting [1] was 25.1 µM [falling, single point].

On to `O=C(NNC(=S)NC1CCCCC1)c1ccc2c(c1)OCO2`, for which the AC50 under setting [1] is 1.3 µM [falling, partial curve].

On to `Cc1ccc(NS(=O)(=O)c2cc(NC(=O)c3cc(=O)[nH]c(=O)[nH]3)ccc2Cl)c(C)c1`, for which, under setting [1], the AC50 is 6.31 µM [rising, single point].

Regarding `N#C/C(=C\c1ccncc1)c1ccc(NC(N)=O)cc1`, under setting [1], the concentration at half-maximal activity (AC50) is 0.398 µM [rising, single point].

As for `Cc1ccc2nc(Cl)c(/C=N/n3c(C)nnc3C)cc2c1`, the AC50 under setting [1] was 3.55 µM [rising, full curve, poor fit].

Turning to `COc1ccc(-c2nc(CN(CC3CCC(=O)N3)C(C)C)c(C)o2)c(C)c1C` (configuration not stated), the half-maximal activity concentration (AC50) under setting [1] is 35.5 µM [falling, single point].

Regarding `COC(=O)Nc1ccc(S(=O)(=O)N2CCCCC2C(=O)NCc2ccco2)cc1` (configuration not stated), the AC50 under setting [1] is 29.1 µM [rising, single point].

As to `C=C[C@@H]1c2c(F)cccc2N(S(=O)(=O)c2ccc(C)cc2)[C@H](c2ccc(OC(C)=O)cc2)C1(C#N)C#N`, the AC50 under setting [1] was 23.1 µM [falling, single point].

On to `COc1ccc(OCC(=O)Nc2cc(OC)cc(OC)c2)cc1`, for which the AC50 under setting [1] was 7.08 µM [falling, partial curve].

In the case of `COc1cccc(C(=O)Nc2ccc(S(=O)(=O)Nc3onc(C)c3C)cc2)c1`, under setting [1], the AC50 is 5.62 µM [falling, partial curve, poor fit].

For `N#Cc1c(SCC(=O)N2CCCCC2)nsc1SCC(=O)N1CCCCC1`, the AC50 under setting [1] is 0.366 µM [rising, full curve, poor fit].

In the case of `O=C1C=C(NCC2CCCO2)C2(CCCCC2)O1` (configuration not stated), the concentration at half-maximal activity (AC50) under setting [1] was 1.26 µM [rising, partial curve, poor fit].

Take `C/C(=N\NC(=O)c1ccn(C)n1)c1ccc(NC(=O)C2CCC2)cc1`: under setting [1], the concentration at half-maximal activity (AC50) is 17.8 µM [falling, single point].

On to `COc1cc(Br)cc(/C=C/c2ccc3cccc(O)c3n2)c1OC`, for which the half-maximal activity concentration (AC50) under setting [1] was 22.4 µM [rising, partial curve, poor fit].

For `COC(=O)CS(=O)(=O)c1nnc([C@H](Cc2ccccc2)NC(=O)OC(C)(C)C)o1`, under setting [1], the half-maximal activity concentration (AC50) is 7.31 µM [falling, partial curve].

As for `Cc1cc2c(cc1S(=O)(=O)NCCc1ccc(Cl)cc1)OCC(=O)N2`, under setting [1], the AC50 was 5.62 µM [rising, single point].

On to `CCOC(=O)C1=C(O)c2ccccc2C(=O)/C1=C\c1ccc(CC)cc1`, for which the AC50 under setting [1] is 1.3 µM [falling, partial curve, poor fit] and the AC50 under setting [2] was 18.4 µM [falling, partial curve, poor fit].

These data come from PubChem BioAssay AID493014 (National Center for Advancing Translational Sciences (NCATS), 2011).
